From the supplement of paper PMC12067093, “Discovery and optimisation of a covalent ligand for TRIM25 and its application to targeted protein ubiquitination” (Chemical Science, 2025)
The other results are listed elsewhere or left out.

Amino acid sequences for entries named in this document (tags omitted). A change or cut given only in a name is not applied to a line headed by its entry.
UniProt Q9BUB5: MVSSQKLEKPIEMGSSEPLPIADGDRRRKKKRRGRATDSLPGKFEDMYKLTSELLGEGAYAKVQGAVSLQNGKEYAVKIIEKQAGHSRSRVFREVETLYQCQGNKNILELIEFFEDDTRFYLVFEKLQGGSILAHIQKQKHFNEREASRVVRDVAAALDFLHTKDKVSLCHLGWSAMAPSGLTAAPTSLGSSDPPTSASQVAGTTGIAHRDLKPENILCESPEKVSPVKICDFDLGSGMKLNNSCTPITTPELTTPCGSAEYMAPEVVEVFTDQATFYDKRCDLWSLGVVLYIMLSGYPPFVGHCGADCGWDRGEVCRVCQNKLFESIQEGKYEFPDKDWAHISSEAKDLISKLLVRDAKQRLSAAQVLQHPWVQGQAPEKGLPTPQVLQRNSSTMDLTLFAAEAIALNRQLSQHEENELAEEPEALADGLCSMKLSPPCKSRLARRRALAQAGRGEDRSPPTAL
UniProt Q9BRT3: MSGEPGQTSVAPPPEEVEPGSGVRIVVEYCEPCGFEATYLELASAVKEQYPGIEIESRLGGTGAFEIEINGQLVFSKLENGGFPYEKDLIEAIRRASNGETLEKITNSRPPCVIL
UniProt Q14149: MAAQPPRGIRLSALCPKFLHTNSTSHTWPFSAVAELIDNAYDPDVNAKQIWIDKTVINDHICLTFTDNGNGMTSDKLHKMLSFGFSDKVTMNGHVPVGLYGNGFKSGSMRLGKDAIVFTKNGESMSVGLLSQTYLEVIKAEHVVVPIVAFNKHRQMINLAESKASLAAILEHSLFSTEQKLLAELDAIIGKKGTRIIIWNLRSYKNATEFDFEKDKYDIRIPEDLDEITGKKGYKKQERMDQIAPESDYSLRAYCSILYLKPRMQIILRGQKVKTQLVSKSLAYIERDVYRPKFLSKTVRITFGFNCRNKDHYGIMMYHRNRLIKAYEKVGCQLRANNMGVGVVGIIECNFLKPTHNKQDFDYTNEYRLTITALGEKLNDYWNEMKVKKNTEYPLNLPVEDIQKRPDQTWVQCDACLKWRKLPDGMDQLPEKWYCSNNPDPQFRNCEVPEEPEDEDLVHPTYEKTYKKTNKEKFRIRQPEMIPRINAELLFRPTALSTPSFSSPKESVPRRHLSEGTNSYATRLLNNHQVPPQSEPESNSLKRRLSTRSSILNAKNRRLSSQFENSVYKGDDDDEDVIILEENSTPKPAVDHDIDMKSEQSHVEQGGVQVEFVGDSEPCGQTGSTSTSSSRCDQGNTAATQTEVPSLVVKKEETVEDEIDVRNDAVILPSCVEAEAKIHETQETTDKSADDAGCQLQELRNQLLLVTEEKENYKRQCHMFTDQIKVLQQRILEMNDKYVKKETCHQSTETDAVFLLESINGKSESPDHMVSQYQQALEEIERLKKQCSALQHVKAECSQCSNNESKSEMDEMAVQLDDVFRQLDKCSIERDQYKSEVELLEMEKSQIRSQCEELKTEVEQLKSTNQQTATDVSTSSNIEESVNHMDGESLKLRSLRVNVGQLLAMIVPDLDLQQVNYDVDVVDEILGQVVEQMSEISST
UniProt Q7Z6M3: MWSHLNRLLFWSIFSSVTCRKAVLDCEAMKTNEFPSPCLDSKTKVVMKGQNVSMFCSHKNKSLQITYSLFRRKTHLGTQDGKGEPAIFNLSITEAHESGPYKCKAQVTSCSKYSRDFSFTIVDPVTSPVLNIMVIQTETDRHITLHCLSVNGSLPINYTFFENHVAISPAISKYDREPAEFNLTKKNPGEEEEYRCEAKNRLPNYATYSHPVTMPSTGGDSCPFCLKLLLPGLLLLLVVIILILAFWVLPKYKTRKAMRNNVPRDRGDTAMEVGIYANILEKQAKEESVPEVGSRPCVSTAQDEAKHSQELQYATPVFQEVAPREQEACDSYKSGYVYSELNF
UniProt Q8N3R9: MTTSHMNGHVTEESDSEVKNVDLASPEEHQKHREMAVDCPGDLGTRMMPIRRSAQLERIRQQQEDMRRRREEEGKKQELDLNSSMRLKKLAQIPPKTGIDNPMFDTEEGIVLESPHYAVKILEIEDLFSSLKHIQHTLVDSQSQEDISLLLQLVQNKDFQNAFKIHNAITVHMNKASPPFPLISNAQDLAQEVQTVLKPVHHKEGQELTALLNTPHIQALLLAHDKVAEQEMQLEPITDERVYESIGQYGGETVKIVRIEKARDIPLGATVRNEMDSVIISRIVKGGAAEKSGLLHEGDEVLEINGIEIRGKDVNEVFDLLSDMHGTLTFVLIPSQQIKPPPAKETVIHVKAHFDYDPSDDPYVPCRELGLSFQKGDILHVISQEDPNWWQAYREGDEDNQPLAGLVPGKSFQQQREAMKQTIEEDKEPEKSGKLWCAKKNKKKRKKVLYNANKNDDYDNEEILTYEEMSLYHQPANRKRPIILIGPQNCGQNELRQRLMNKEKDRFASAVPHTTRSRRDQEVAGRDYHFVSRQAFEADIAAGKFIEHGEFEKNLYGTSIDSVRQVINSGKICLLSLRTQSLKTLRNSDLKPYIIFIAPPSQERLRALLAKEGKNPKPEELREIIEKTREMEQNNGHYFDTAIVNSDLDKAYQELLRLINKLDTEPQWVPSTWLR
UniProt P46013: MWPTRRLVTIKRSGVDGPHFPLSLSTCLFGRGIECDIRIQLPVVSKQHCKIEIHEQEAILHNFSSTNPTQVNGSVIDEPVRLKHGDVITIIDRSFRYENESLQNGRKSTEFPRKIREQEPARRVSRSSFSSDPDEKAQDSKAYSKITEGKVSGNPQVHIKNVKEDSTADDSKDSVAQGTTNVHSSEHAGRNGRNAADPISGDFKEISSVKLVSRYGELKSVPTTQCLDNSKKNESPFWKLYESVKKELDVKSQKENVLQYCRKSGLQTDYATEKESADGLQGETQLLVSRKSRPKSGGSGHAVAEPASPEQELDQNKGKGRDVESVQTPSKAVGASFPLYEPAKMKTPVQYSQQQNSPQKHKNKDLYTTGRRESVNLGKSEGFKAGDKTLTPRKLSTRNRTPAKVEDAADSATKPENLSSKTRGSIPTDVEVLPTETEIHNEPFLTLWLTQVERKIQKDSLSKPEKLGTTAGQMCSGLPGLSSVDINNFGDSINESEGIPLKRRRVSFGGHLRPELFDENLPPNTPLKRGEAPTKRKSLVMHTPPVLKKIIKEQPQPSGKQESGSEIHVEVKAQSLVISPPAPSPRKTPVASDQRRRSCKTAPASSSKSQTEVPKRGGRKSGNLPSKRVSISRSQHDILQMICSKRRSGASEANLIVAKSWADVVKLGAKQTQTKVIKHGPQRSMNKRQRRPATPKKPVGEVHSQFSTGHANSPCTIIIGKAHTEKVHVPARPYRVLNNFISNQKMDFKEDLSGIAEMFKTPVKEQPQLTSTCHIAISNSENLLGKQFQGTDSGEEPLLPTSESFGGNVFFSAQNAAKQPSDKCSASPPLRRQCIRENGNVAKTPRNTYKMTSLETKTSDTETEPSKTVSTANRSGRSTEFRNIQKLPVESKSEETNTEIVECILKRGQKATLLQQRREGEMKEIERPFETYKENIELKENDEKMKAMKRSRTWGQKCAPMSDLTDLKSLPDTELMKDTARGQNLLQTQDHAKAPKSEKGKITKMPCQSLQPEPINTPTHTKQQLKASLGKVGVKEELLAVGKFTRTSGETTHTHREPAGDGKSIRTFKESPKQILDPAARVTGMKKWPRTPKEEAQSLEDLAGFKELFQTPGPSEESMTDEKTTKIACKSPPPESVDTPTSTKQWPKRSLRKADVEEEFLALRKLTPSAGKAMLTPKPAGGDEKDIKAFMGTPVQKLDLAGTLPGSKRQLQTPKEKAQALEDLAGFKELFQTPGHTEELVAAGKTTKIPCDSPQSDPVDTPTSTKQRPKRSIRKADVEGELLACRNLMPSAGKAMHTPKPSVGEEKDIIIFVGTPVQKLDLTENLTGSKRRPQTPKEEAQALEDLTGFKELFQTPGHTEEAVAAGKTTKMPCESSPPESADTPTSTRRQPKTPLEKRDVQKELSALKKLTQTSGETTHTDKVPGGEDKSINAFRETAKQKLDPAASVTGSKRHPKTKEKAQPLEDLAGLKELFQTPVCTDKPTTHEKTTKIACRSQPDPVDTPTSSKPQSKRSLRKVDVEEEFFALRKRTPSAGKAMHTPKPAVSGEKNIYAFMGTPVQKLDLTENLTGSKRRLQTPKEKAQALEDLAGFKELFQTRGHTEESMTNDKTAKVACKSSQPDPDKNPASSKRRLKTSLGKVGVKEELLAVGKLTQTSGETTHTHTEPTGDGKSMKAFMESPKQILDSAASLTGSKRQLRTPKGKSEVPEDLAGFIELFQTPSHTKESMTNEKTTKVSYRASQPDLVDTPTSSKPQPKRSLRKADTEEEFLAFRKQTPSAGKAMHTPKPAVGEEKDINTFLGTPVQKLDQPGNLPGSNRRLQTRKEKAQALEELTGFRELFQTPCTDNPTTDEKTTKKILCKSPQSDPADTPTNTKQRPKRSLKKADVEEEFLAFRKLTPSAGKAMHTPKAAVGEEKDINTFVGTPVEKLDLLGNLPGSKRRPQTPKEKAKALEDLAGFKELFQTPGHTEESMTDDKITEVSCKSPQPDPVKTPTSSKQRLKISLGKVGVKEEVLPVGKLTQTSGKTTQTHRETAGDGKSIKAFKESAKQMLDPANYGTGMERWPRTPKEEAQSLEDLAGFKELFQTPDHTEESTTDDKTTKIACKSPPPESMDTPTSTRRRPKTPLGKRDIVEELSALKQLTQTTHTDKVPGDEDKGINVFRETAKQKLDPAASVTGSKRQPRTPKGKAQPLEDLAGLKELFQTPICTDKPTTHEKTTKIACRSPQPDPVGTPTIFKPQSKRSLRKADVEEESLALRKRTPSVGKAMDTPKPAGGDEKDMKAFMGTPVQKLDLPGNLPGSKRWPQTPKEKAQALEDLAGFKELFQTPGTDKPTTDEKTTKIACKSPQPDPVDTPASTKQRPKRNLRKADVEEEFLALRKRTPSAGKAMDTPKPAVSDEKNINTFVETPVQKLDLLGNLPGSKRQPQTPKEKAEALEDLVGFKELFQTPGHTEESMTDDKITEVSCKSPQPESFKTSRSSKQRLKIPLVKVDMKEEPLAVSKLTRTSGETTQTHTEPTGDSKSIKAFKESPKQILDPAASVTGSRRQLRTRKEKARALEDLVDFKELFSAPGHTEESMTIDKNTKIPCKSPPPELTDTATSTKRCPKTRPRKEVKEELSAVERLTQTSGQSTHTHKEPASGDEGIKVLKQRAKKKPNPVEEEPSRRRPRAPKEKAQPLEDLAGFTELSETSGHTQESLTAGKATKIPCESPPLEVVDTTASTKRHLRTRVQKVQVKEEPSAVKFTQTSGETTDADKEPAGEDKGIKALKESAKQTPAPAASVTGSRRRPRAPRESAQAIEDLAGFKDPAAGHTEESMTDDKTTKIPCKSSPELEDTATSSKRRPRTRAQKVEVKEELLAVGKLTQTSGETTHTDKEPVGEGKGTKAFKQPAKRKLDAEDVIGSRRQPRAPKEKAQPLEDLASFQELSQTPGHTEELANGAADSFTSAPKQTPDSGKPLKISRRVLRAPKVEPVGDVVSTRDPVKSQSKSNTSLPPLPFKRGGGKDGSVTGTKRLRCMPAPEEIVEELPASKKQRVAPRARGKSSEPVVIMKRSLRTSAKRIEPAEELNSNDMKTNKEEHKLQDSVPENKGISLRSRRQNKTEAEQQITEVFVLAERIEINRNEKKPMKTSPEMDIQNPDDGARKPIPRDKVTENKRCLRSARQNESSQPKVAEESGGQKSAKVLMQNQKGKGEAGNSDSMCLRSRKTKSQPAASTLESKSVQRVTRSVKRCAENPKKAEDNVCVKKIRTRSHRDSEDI
UniProt Q9BU76: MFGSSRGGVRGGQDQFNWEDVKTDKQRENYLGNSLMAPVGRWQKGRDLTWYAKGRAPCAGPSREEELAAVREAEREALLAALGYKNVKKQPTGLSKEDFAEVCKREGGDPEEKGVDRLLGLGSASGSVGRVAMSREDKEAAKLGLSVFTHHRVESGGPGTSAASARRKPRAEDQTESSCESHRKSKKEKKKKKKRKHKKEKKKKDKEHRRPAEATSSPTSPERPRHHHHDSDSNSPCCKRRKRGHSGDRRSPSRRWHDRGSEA
UniProt Q9Y4U1: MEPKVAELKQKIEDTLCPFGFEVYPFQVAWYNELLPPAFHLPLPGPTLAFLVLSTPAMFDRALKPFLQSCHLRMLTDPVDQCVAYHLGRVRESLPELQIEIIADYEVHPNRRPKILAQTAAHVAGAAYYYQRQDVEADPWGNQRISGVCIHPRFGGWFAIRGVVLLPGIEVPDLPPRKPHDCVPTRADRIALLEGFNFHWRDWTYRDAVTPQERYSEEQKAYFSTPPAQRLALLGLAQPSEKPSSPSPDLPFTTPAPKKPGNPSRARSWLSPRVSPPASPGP
UniProt Q9BWT6: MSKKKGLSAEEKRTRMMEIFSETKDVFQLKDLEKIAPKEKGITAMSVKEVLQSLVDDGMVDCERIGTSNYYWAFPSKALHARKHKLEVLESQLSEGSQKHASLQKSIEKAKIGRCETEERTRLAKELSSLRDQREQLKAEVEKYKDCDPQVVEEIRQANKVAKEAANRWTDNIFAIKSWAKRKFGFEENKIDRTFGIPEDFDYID

Compound: Cc1cc(ccc1-c1ccccc1)C(=O)N1CCCN(CC1)C(=O)CCl [compound 10]
Test: probe-labelled cysteine peptide fold change vs DMSO (competition) (log2 fold change); higher = less target engagement (more negative = stronger competition)
Details: THP-1, incubation time: 4 h
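Also: competitive profiling in live THP-1 cells: cysteine peptides tagged with an iodoacetamide desthiobiotin (IA-DTB) probe, intensity after compound treatment relative to DMSO-treated cells.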

## MKNK1_Q9BUB5_219_DLKPENILCESPEK (UniProt Q9BUB5)
10 µM
  probe-labelled cysteine peptide fold change: -0.226
50 µM
  probe-labelled cysteine peptide fold change: -0.477

## MIEN1_Q9BRT3_33_IVVEYCEPCGFEATYLELASAVK (UniProt Q9BRT3)
10 µM
  probe-labelled cysteine peptide fold change: 0.092
50 µM
  probe-labelled cysteine peptide fold change: -0.0126

## MORC3_Q14149_671_NDAVILPSCVEAEAK (UniProt Q14149)
10 µM
  probe-labelled cysteine peptide fold change: -0.296
50 µM
  probe-labelled cysteine peptide fold change: -0.0456

## MILR1_Q7Z6M3_110_AQVTSCSK (UniProt Q7Z6M3)
10 µM
  probe-labelled cysteine peptide fold change: -0.255
50 µM
  probe-labelled cysteine peptide fold change: -0.888

## MLH1_P40692_672_ECFESLSK (UniProt P40692)
10 µM
  probe-labelled cysteine peptide fold change: -0.0824
50 µM
  probe-labelled cysteine peptide fold change: 0.158

## MIER1_Q8N108_263_CNFDTEEALRR (UniProt Q8N108)
10 µM
  probe-labelled cysteine peptide fold change: 0.0472
50 µM
  probe-labelled cysteine peptide fold change: 0.316

## MICAL3_Q7RTP6_97_CLIIGAGPCGLR (UniProt Q7RTP6)
10 µM
  probe-labelled cysteine peptide fold change: -0.0996
50 µM
  probe-labelled cysteine peptide fold change: 0.264

## MICAL1_Q8TDZ2_711_LCVNGHFFHR (UniProt Q8TDZ2)
10 µM
  probe-labelled cysteine peptide fold change: -0.068
50 µM
  probe-labelled cysteine peptide fold change: -0.0359

## MRPL17_Q9NRX2_129_GNCLPPLPLPR (UniProt Q9NRX2)
10 µM
  probe-labelled cysteine peptide fold change: -0.184
50 µM
  probe-labelled cysteine peptide fold change: -0.187

## MILR1_Q7Z6M3_297_EESVPEVGSRPCVSTAQDEAK (UniProt Q7Z6M3)
10 µM
  probe-labelled cysteine peptide fold change: -0.35
50 µM
  probe-labelled cysteine peptide fold change: -0.958

## MPP5_Q8N3R9_366_AHFDYDPSDDPYVPCR (UniProt Q8N3R9)
10 µM
  probe-labelled cysteine peptide fold change: 0.0892
50 µM
  probe-labelled cysteine peptide fold change: -0.463

## MPHOSPH10_O00566_27_ATGRPECFLTIQEGLASK (UniProt O00566)
10 µM
  probe-labelled cysteine peptide fold change: -0.0805
50 µM
  probe-labelled cysteine peptide fold change: 0.0291

## MOV10_Q9HCE1_650_LVSAQFPIDHFTHIFIDEAGHCMEPESLVAIAGLMEVK (UniProt Q9HCE1)
10 µM
  probe-labelled cysteine peptide fold change: -0.0194
50 µM
  probe-labelled cysteine peptide fold change: 0.0327

## MKLN1_Q9UL63_393_LVFDHQMCMDSEK (UniProt Q9UL63)
10 µM
  probe-labelled cysteine peptide fold change: -0.00049
50 µM
  probe-labelled cysteine peptide fold change: 0.187

## MKI67_P46013_1285_KADVEGELLACR (UniProt P46013)
10 µM
  probe-labelled cysteine peptide fold change: -0.251
50 µM
  probe-labelled cysteine peptide fold change: -0.379

## MMTAG2_Q9BU76_179_AEDQTESSCESHRK (UniProt Q9BU76)
10 µM
  probe-labelled cysteine peptide fold change: 0.00151
50 µM
  probe-labelled cysteine peptide fold change: -0.408

## MRPL22_Q9NWU5_70_RPAEIYHCR (UniProt Q9NWU5)
10 µM
  probe-labelled cysteine peptide fold change: -0.086
50 µM
  probe-labelled cysteine peptide fold change: -0.0325

## MOCS3_O95396_193_YLVNDACVLAGRPLVSASALR (UniProt O95396)
10 µM
  probe-labelled cysteine peptide fold change: -0.0959
50 µM
  probe-labelled cysteine peptide fold change: -0.0303

## MICAL2_O94851_703_SLGSNQECGSSK (UniProt O94851)
10 µM
  probe-labelled cysteine peptide fold change: -0.0982
50 µM
  probe-labelled cysteine peptide fold change: -0.269

## MMADHC_Q9H3L0_82_FQLPGNIGFDCHLNGTASQK (UniProt Q9H3L0)
10 µM
  probe-labelled cysteine peptide fold change: -0.429
50 µM
  probe-labelled cysteine peptide fold change: -0.691

## MOB3A_Q96BX8_88_VNLIYGTISDGCTEQSCPVMSGGPK (UniProt Q96BX8)
10 µM
  probe-labelled cysteine peptide fold change: 0.233
50 µM
  probe-labelled cysteine peptide fold change: 0.292

## MRC2_Q9UBG0_950_CLTALPYICK (UniProt Q9UBG0)
10 µM
  probe-labelled cysteine peptide fold change: -0.0797
50 µM
  probe-labelled cysteine peptide fold change: -0.336

## MRPL46_Q9H2W6_210_FLGNAPCGHYTFK (UniProt Q9H2W6)
10 µM
  probe-labelled cysteine peptide fold change: 0.00398
50 µM
  probe-labelled cysteine peptide fold change: -0.095

## MRPL38_Q96DV4_290_QDQPIDFSEDARPSPCYQLAQR (UniProt Q96DV4)
10 µM
  probe-labelled cysteine peptide fold change: -0.0378
50 µM
  probe-labelled cysteine peptide fold change: 0.127

## MRPL24_Q96A35_190_TYVPCLK (UniProt Q96A35)
10 µM
  probe-labelled cysteine peptide fold change: -0.203
50 µM
  probe-labelled cysteine peptide fold change: 0.0437

## MMS19_Q96T76_386_ACDSVTSNVLPLLLEQFHK (UniProt Q96T76)
10 µM
  probe-labelled cysteine peptide fold change: 0.0585
50 µM
  probe-labelled cysteine peptide fold change: 0.095

## MORC3_Q14149_307_ITFGFNCR (UniProt Q14149)
10 µM
  probe-labelled cysteine peptide fold change: -0.379
50 µM
  probe-labelled cysteine peptide fold change: -0.0989

## MROH1_Q8NDA8_888_ADVIHGCLHSIMALLPEPKEEDGGCQK (UniProt Q8NDA8)
10 µM
  probe-labelled cysteine peptide fold change: -0.172
50 µM
  probe-labelled cysteine peptide fold change: -0.167

## MMACHC_Q9Y4U1_82_MLTDPVDQCVAYHLGR (UniProt Q9Y4U1)
10 µM
  probe-labelled cysteine peptide fold change: -0.0125
50 µM
  probe-labelled cysteine peptide fold change: -0.14

## MND1_Q9BWT6_147_DCDPQVVEEIR (UniProt Q9BWT6)
10 µM
  probe-labelled cysteine peptide fold change: -0.122
50 µM
  probe-labelled cysteine peptide fold change: -0.0556

## MPI_P34949_11_VFPLSCAVQQYAWGK (UniProt P34949)
10 µM
  probe-labelled cysteine peptide fold change: -0.118
50 µM
  probe-labelled cysteine peptide fold change: -0.00117

## MOB4_Q9Y3A3_97_LQSECHPDTCTQMTATEQWIFLCAAHK (UniProt Q9Y3A3)
10 µM
  probe-labelled cysteine peptide fold change: -0.00522
50 µM
  probe-labelled cysteine peptide fold change: 0.0446

## MRPL42_Q9Y6G3_45_STYSPLPDDYNCNVELALTSDGR (UniProt Q9Y6G3)
10 µM
  probe-labelled cysteine peptide fold change: 0.0794
50 µM
  probe-labelled cysteine peptide fold change: -0.1

## MKI67_P46013_3199_GKGEAGNSDSMCLR (UniProt P46013)
10 µM
  probe-labelled cysteine peptide fold change: -0.1
50 µM
  probe-labelled cysteine peptide fold change: -0.426

## MON2_Q7Z3U7_212_SVSTLKPCAK (UniProt Q7Z3U7)
10 µM
  probe-labelled cysteine peptide fold change: -0.164
50 µM
  probe-labelled cysteine peptide fold change: -0.244
